Taken from: PubChem BioAssay AID504808 (Drosophila RNAi Screening Center, 2011)
Aim: 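Fly genes required to hold E2F transcription in check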 (primary screen). System: Drosophila S2 cells. Reagents: long dsRNA against Drosophila genes. Detection: 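Dual luciferase plate measurements; E2F-specific signal taken as firefly over Renilla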. Reading the numbers: E2F firefly: higher = more E2F reporter activity; Renilla normaliser: higher = more normaliser reporter signal. Hit rule: 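Called active if the normalised E2F reporter went up by over 50%; the cutoff is arbitrary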.
The deposit covers about 21,000 reagents; shown is an unselected part of those with a known target gene and a result. Over the whole deposit, 18 (0.084%) got an active call. 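Raw counts without plate normalisation, one of two replicates; the ratio scores behind the calls were not deposited.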 A number with no mark means an inactive call. The numbers tell different reagents against one gene apart. Names joined by + are all predicted targets of the reagent. The record does not give: the amount of reagent, the time to read-out.

predicted target | reagent | E2F firefly, rep 1 | Renilla normaliser, rep 1
RpS20 (GeneID 42464) | 1 | 74073 | 8183
CG34382 (GeneID 5740788) | 1 | 1.34e5 | 4880
CG34382 (GeneID 5740788) | 2 | 1.02e5 | 5375
CG34382 (GeneID 5740788) | 3 | 98225 | 3561
CG33258 (GeneID 3885664) | 1 | 1.38e5 | 3945
CG17601 (GeneID 33143) | 1 | 1.30e5 | 7110
MTA1-like (GeneID 40693) | 1 | 1.31e5 | 6209
CG15125 (GeneID 37258) | 1 | 1.47e5 | 5069
Amacr (GeneID 35337) | 1 | 79688 | 3149
RnpS1 (GeneID 41147) | 1 | 67348 | 3325
CG6700 (GeneID 34496) | 1 | 78100 | 3111
odd (GeneID 33583) | 1 | 1.16e5 | 110
jeb (GeneID 36295) | 1 | 87882 | 3991
jeb (GeneID 36295) | 2 | 92185 | 3767
CG14694 (GeneID 41307) | 1 | 1.41e5 | 6179
Tailor (GeneID 40847) | 1 | 1.13e5 | 6422
Polr1C (GeneID 33712) | 1 | 99894 | 4236
CG31176 (GeneID 42554) | 1 | 1.39e5 | 6709
CG31176 (GeneID 42554) | 2 | 1.33e5 | 7147
CG5160 (GeneID 34015) | 1 | 1.64e5 | 5078
CG4313 (GeneID 31169) | 1 | 1942 | 984
Cyp40 (GeneID 39121) | 1 | 73350 | 3578
Cpr78Cc (GeneID 40355) | 1 | 1.43e5 | 7657
Vlet (GeneID 32116) | 1 | 8609 | 772
fws (GeneID 35054) | 1 | 82981 | 3653
Eglp1 (GeneID 37736) | 1 | 83279 | 3265
CG14270 (GeneID 31319) | 1 | 1.27e5 | 5516
RpL3 + CG6693 | 1 | 66791 | 3677
CG8646 (GeneID 36394) | 1 | 94874 | 3969
CG7695 (GeneID 42234) | 1 | 1.33e5 | 6713
CG42382 (GeneID 35938) | 1 | 1.43e5 | 4792
CG6729 (GeneID 34484) | 1 | 75615 | 3606
CG34337 (GeneID 5740569) | 1 | 1.14e5 | 5919
Pcmt (GeneID 40668) | 1 | 1.46e5 | 6372
